Assay results reported in the supplement of paper PMC12819154, “High-throughput peptide-centric local stability assay extends protein–ligand identification to membrane proteins, tissues and bacteria” (Nature Structural & Molecular Biology, 2025).
This is one part of the list. Most entries show no effect beyond the scatter of the controls.

By UniProt entry, the sequences of proteins in these tests, tags left out. Where a name states a change or a piece, a line headed by the entry shows the natural chain unless it says otherwise.
UniProt Q9UPY8, whole entry: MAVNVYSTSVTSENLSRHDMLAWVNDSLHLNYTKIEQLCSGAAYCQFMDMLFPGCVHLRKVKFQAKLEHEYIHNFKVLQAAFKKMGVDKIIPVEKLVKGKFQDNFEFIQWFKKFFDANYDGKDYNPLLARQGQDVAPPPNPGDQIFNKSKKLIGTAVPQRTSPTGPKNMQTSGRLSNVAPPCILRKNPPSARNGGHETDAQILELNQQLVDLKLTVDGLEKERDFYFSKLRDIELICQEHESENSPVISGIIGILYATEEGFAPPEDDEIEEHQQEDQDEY
UniProt Q9UHW5, whole entry: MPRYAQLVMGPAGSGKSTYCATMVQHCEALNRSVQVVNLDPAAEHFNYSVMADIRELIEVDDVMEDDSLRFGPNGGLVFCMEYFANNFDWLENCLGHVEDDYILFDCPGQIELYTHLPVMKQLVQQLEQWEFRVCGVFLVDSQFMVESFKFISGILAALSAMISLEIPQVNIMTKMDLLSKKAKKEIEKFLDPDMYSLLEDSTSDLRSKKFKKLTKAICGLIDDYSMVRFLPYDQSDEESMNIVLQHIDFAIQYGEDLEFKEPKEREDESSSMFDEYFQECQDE
UniProt Q9UHF7: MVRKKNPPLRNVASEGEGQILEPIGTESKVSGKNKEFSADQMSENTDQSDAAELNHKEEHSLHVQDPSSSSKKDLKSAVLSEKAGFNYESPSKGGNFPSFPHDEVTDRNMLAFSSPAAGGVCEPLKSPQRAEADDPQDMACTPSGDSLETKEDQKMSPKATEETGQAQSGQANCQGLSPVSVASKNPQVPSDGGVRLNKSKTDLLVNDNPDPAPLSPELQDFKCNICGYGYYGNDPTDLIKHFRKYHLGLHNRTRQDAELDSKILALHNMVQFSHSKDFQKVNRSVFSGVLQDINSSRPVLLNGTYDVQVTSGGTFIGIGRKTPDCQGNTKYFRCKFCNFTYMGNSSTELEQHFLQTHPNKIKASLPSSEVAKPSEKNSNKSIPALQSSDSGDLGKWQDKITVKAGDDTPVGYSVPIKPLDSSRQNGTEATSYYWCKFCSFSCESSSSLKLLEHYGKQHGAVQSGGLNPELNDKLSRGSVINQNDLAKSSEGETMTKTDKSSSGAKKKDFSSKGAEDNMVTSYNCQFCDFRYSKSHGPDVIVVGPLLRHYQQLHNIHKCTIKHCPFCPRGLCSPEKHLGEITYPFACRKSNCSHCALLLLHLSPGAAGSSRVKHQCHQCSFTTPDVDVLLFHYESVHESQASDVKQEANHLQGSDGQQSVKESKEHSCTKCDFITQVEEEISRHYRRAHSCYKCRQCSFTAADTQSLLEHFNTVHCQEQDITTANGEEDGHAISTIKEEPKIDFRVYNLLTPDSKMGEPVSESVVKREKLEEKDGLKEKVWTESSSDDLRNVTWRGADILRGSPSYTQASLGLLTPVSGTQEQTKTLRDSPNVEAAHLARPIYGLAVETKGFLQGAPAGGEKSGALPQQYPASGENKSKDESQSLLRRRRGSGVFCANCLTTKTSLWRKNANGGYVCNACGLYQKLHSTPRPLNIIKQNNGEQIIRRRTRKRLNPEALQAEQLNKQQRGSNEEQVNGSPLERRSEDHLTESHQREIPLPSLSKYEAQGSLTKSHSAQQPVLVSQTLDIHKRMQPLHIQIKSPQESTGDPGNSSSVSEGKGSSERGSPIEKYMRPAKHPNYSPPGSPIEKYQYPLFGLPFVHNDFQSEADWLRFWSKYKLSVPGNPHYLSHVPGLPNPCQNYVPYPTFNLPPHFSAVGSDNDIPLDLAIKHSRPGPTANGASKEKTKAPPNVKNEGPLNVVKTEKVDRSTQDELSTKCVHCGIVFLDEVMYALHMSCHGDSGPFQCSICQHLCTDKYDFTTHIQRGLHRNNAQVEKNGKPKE
UniProt Q9Y259: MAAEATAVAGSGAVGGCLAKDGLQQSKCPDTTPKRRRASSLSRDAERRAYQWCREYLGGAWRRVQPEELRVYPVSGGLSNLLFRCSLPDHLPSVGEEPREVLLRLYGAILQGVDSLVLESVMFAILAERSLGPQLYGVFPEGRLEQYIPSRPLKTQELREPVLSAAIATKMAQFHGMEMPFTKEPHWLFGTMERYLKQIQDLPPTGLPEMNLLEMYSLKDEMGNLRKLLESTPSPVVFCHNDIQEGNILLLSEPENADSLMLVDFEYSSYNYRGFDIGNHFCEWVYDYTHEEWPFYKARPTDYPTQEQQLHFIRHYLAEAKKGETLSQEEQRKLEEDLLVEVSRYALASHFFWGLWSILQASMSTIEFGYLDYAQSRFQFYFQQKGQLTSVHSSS
UniProt Q9UHX1: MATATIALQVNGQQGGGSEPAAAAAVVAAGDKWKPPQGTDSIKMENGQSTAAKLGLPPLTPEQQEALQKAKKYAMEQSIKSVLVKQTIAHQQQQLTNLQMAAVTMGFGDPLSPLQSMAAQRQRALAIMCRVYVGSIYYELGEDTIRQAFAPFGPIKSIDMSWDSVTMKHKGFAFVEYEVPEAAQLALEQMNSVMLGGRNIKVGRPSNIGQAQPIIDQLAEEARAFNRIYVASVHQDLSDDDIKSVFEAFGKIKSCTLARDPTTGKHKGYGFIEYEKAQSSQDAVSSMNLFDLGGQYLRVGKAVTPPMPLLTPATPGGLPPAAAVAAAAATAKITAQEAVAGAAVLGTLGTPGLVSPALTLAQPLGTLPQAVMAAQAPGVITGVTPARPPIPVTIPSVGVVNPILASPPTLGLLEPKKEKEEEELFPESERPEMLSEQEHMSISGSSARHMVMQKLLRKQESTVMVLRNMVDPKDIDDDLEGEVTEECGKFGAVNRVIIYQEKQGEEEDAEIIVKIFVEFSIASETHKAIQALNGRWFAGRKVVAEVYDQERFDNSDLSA
UniProt Q9UK99: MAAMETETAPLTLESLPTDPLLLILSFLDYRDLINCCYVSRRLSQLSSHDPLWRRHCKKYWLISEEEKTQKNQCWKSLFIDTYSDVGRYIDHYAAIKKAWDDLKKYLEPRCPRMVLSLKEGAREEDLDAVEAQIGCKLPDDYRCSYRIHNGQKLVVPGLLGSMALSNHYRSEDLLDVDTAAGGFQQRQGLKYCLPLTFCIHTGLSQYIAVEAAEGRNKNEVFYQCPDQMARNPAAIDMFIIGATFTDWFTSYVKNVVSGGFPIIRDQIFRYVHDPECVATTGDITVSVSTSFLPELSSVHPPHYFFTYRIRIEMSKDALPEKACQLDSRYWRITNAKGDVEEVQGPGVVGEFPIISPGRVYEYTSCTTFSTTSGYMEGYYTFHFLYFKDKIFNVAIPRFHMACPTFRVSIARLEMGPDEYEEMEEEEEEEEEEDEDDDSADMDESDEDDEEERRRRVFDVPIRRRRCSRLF
UniProt Q9UHR5: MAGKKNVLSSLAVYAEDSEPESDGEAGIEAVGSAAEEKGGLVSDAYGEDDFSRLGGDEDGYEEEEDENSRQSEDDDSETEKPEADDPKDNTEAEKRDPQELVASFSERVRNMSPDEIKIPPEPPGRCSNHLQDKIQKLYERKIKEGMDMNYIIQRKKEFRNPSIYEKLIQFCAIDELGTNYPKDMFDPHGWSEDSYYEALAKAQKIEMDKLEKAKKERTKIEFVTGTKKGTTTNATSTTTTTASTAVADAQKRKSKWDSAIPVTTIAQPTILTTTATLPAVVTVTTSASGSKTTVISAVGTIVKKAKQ
UniProt Q9Y253: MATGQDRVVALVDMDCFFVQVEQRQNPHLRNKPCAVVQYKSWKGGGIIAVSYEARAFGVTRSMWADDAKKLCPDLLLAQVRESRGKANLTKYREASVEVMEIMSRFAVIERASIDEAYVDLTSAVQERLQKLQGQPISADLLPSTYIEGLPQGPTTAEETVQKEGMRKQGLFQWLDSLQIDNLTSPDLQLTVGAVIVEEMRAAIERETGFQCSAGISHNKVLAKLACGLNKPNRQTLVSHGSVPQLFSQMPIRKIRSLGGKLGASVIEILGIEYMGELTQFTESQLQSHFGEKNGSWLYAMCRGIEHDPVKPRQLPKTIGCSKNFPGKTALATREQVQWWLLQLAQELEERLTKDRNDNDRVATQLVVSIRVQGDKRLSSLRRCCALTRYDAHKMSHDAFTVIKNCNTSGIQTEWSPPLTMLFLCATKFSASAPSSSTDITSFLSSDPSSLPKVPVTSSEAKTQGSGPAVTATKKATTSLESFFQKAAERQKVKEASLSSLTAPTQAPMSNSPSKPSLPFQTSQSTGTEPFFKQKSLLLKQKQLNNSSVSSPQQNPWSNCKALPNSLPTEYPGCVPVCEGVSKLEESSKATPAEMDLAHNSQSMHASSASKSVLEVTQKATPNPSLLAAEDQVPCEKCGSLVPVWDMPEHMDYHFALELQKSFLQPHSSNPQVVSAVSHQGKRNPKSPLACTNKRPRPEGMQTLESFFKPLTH
UniProt Q9UQB8: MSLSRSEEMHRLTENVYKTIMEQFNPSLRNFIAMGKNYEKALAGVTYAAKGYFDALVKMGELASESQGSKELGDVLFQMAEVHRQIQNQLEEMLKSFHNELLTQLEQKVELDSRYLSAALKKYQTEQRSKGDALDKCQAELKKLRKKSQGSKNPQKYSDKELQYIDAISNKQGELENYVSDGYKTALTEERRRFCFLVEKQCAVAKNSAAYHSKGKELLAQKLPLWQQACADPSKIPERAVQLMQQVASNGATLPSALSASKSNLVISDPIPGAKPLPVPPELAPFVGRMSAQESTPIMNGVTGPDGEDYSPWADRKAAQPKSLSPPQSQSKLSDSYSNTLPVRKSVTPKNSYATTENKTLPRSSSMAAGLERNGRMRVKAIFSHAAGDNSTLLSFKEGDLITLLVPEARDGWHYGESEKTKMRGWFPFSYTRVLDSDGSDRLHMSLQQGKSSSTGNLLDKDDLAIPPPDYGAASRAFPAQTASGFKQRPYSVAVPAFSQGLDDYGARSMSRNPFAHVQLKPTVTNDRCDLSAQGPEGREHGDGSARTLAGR

compound: Cc1nc(Nc2ncc(C(=O)Nc3c(C)cccc3Cl)s2)cc(N2CCN(CCO)CC2)n1 [dasatinib]; test: log2 fold change of tryptic peptide abundance, ligand vs vehicle (limited proteolysis) (log2 ratio); higher = more trypsin-susceptible (destabilized); settings: ligand concentration: 5 uM; sample: K562 cleared lysate

Target | log2 fold change
MAPRE3 (peptide sequence: FFDANYDGK, peptide start residue: 114) (UniProt Q9UPY8) | -0.0493
GPN3 (peptide sequence: STYCATMVQHCEALNR, peptide start residue: 17) (UniProt Q9UHW5) | -0.15
TRPS1 (peptide sequence: GSVINQNDLAK, peptide start residue: 478) (UniProt Q9UHF7) | -0.478
CHKB (peptide sequence: DGLQQSKCPDTTPK, peptide start residue: 21) (UniProt Q9Y259) | -0.0411
PUF60 (peptide sequence: SVFEAFGK, peptide start residue: 244) (UniProt Q9UHX1) | 0.0676
FBXO3 (peptide sequence: NKNEVFYQCPDQMAR, peptide start residue: 217) (UniProt Q9UK99) | 0.378
SAP30BP (peptide sequence: NMSPDEIK, peptide start residue: 111) (UniProt Q9UHR5) | 0.135
UniProt Q9Y253 (peptide sequence: KLCPDLLLAQVR, peptide start residue: 70) | -0.191
BAIAP2 (peptide sequence: FCFLVEK, peptide start residue: 194) (UniProt Q9UQB8) | -0.223

Reprinted at random: 2 entries already listed
Target | log2 fold change
CHKB (peptide sequence: DGLQQSKCPDTTPK, peptide start residue: 21) (UniProt Q9Y259) | -0.0411
UniProt Q9Y253 (peptide sequence: KLCPDLLLAQVR, peptide start residue: 70) | -0.191
